Test results taken from publication PMC8196014.

Molecular target: T1, GST-LATS1-Kinase region (UniProt O95835)
T1 sequence: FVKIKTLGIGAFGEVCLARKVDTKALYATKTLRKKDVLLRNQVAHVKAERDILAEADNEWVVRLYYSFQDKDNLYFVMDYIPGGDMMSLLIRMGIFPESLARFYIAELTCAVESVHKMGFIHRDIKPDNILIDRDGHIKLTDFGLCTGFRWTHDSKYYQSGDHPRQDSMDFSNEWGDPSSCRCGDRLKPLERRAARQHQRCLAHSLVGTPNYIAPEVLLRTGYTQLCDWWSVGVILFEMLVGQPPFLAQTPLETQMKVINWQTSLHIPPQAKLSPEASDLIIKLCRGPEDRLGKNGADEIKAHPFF
Test: pull-down; GST pull-down: lysates of HEK293 cells transfected with truncates of GFP-Kindlin-2 incubated in vitro with GST, GST-YAP or GST-LATS1-Kinase region; anti-GFP blot; only the target purified

binding	Substance
binds	GFP-Kindlin-2 N-terminal region (truncate) (domain or fragment)
binds	GFP-Kindlin-2 middle region (truncate) (domain or fragment)

No constants are given. Whether binding was seen depends on the method and setting. In cells and extracts the contact can be indirect. Binding calls can cover weak binding; strength is not graded here. Where a sequence is shown, tags or fusion partners need not be part of it.
